Test results taken from PubChem BioAssay AID330 (DTP/NCI, 2004).
The list shows only some results of the screen, not a fair sample: it gathers tests that were run many times, whatever their T/C, doses with no T/C, and many T/C values between a quarter and a half above the control. Further doses and runs are listed elsewhere. T/C is the treated group as % of the vehicle group. Some entries give survivors of the animals treated and no T/C: the source files T/C as zero there, which appears to mark a toxic dose or a test without result, not a measured value. Some doses without a T/C left all or most animals alive at the check, yet need not have been tolerated: survival well below the control is almost never listed, so the zero probably covers shortened survival too. Survivors were counted at the toxicity check, usually on the fifth day, unless a day is given; later deaths do not show. Schedules are NCI's codes, read here as Q, the interval in days (D) or hours (H), X, the number of doses. Some entries were tested several times; their values stand side by side, smallest first. For survival time, the PubChem record calls one and a half times the control and up active, and a quarter to a half above the control has no call in these data; cut-offs in other NCI protocols can differ. Some T/C values carry the count of animals alive at the toxicity check (mostly the fifth day); where none is given, no animal had died by that day.

Test system: P388 leukemia ip, CD2F1 mice, survival T/C
Assay: NCI In Vivo Anticancer Drug Screen. Data for tumor model P388 Leukemia (intraperitoneal) in CD2F1 (CDF1) mice
Details: T/C endpoint: median survival time, higher T/C = longer survival
[1] = dose: 240.0 mg/kg/injection, schedule: Q01DX005 (ip), vehicle: Klucel (hydroxypropylcellulose) (HPC)
[2] = dose: 100.0 mg/kg/injection, schedule: Q01DX005 (ip), vehicle: Klucel (hydroxypropylcellulose) (HPC)
[3] = dose: 200.0 mg/kg/injection, schedule: Q01DX005 (ip), vehicle: Klucel (hydroxypropylcellulose) (HPC)
[4] = dose: 200.0 mg/kg/injection, schedule: Q01DX009 (ip), vehicle: saline
[5] = dose: 400.0 mg/kg/injection, schedule: Q01DX009 (ip), vehicle: saline
[6] = dose: 800.0 mg/kg/injection, schedule: Q01DX009 (ip), vehicle: saline
[7] = dose: 600.0 mg/kg/injection, schedule: Q01DX009 (ip), vehicle: saline
[8] = dose: 240.0 mg/kg/injection, schedule: Q01DX005 (ip), vehicle: saline with Tween-80
[9] = dose: 100.0 mg/kg/injection, schedule: Q01DX009 (ip), vehicle: saline with Tween-80
[10] = dose: 200.0 mg/kg/injection, schedule: Q01DX009 (ip), vehicle: saline with Tween-80
[11] = dose: 100.0 mg/kg/injection, schedule: Q01DX009 (ip), vehicle: Klucel (hydroxypropylcellulose) (HPC)
[12] = dose: 200.0 mg/kg/injection, schedule: Q01DX009 (ip), vehicle: Klucel (hydroxypropylcellulose) (HPC)
[13] = dose: 50.0 mg/kg/injection, schedule: Q01DX009 (ip), vehicle: saline
[14] = dose: 100.0 mg/kg/injection, schedule: Q01DX009 (ip), vehicle: saline
[15] = dose: 50.0 mg/kg/injection, schedule: Q01DX009 (ip), vehicle: Klucel (hydroxypropylcellulose) (HPC)

In the case of COC(=O)/C=C(/Sc1nc(Cl)c(Cl)nc1N)C(=O)OC (tested in a mixture with another compound), the survivor count (dose: 60.0 mg/kg/injection, schedule: Q01DX005 (ip), vehicle: Klucel (hydroxypropylcellulose) (HPC)) is reported as 2 of 6, the survivor count (dose: 120.0 mg/kg/injection, schedule: Q01DX005 (ip), vehicle: Klucel (hydroxypropylcellulose) (HPC)) is reported as 0 of 6 and the survivor count [1] is reported as 0 of 6.

For CC(C)(C)[N]=[V]([Cl])([Cl])[Cl], the survivor count [2] was 0 of 6 and the survivor count [3] was 0 of 6.

With O=c1c(Cl)c2cc3c(cc2c2ccccc12)nc1ccccc1n3-c1ccccc1 the survivor count (dose: 100.0 mg/kg/injection, schedule: Q01DX001 (ip), vehicle: saline with Tween-80) was 6 of 6 and the survivor count (dose: 200.0 mg/kg/injection, schedule: Q01DX001 (ip), vehicle: saline with Tween-80) was 6 of 6.

With CN(C)C=O the T/C [4] was 102 [4 of 5 alive], 108, 115, 120 % of control, the T/C [5] was 111 [5 of 6 alive], 113, 116, 120 % of control and the T/C [6] was 125 % of control. The T/C (dose: 1600.0 mg/kg/injection, schedule: Q01DX009 (ip), vehicle: saline) was 125 and 132 % of control [4 of 6 alive] and the survivor count (dose: 3200.0 mg/kg/injection, schedule: Q01DX009 (ip), vehicle: saline) was 1 of 6 and 3 of 6.

In the case of O=c1cccc[nH]1, the T/C [5] is reported as 136 % of control, the survivor count [7] is reported as 3 of 6 and the survivor count [6] is reported as 0 of 6 and 2 of 6.

In the case of O=C(O)C(Cc1ccc(O)cc1)NS(=O)(=O)Cc1ccccc1 (configuration not stated), the survivor count (dose: 400.0 mg/kg/injection, schedule: Q01DX009 (ip), vehicle: DMSO) is reported as 6 of 6.

For O=C1OCC=C1Sc1ccccc1, the survivor count [8] was 4 of 6.

In the case of O=[Se]([O][Sn]([O][Se](=O)c1ccccc1)([O][Se](=O)c1ccccc1)[O][Se](=O)c1ccccc1)c1ccccc1 (configuration not stated), the survivor count [9] is reported as 0 of 6 and the survivor count [10] is reported as 0 of 6.

C=CCSc1cccc2ccccc12 was tested, and the survivor count [10] was 3 of 6.

In the case of Cc1cc(OC(=O)Nc2cc([N+](=O)[O-])ccc2C)c(Br)cc1Cl, the survivor count [9] is reported as 3 of 6 and the survivor count [10] is reported as 1 of 6.

COc1ccc(Nc2ccnc3cc(Cl)ccc23)cc1CN(CCCl)CCCl was tested, and the T/C (dose: 0.18 mg/kg/injection, schedule: Q01DX009 (ip), vehicle: saline) was 127 % of control, the T/C (dose: 0.37 mg/kg/injection, schedule: Q01DX009 (ip), vehicle: saline) was 134 % of control and the T/C (dose: 0.75 mg/kg/injection, schedule: Q01DX009 (ip), vehicle: saline) was 142 % of control. The T/C (dose: 1.5 mg/kg/injection, schedule: Q01DX009 (ip), vehicle: saline) was 125 % of control, the survivor count (dose: 3.0 mg/kg/injection, schedule: Q01DX009 (ip), vehicle: saline) was 1 of 6 and the survivor count (dose: 6.0 mg/kg/injection, schedule: Q01DX009 (ip), vehicle: saline) was 1 of 6.

For Cc1cc2c(cc1C)Nc1oc3ccc4ccccc4c3c(=O)c1C=N2, the survivor count (dose: 50.0 mg/kg/injection, schedule: Q01DX005 (ip), vehicle: Klucel (hydroxypropylcellulose) (HPC)) was 6 of 6 and the survivor count [2] was 6 of 6.

For CCN(CC)CCCNC(=O)Cc1ccc2c(c1)C(=O)c1ccccc1C2=O, the survivor count (dose: 100.0 mg/kg/injection, schedule: Q01DX005 (ip), vehicle: water) was 0 of 6, the survivor count (dose: 200.0 mg/kg/injection, schedule: Q04DX002 (ip), vehicle: water) was 0 of 6 and the survivor count (dose: 400.0 mg/kg/injection, schedule: Q04DX002 (ip), vehicle: water) was 0 of 6.

With CCN(CC)CCOCCCNc1ccnc2cc(Cl)ccc12 the survivor count (dose: 200.0 mg/kg/injection, schedule: Q01DX005 (ip), vehicle: saline) was 0 of 6.

With CC(=O)[C@@]1(O)CC[C@H]2[C@@H]3C=C(C)C4=CC(=O)CC[C@]4(C)[C@@]3(F)[C@@H](O)C[C@@]21C the survivor count [9] was 6 of 6, the survivor count [10] was 6 of 6 and the survivor count (dose: 400.0 mg/kg/injection, schedule: Q01DX009 (ip), vehicle: saline with Tween-80) was 5 of 6.

Nc1nc(Sc2ccc([N+](=O)[O-])c3nonc23)c2ncn(C3OC(CO)C(O)C3O)c2n1 (configuration not stated) was tested, and the T/C (dose: 12.5 mg/kg/injection, schedule: Q01DX009 (ip), vehicle: Klucel (hydroxypropylcellulose) (HPC)) was 131 and 145 % of control, the T/C (dose: 25.0 mg/kg/injection, schedule: Q01DX009 (ip), vehicle: Klucel (hydroxypropylcellulose) (HPC)) was 144 % of control and the survivor count [11] was 6 of 6. For the same compound, the survivor count [12] was 6 of 6.

In the case of COc1ccc(/C=C/C(=O)C(C)(CN(C)C)CN(C)C)cc1, the T/C (dose: 60.0 mg/kg/injection, schedule: Q01DX005 (ip), vehicle: saline) is reported as 128 and 130 % of control, the T/C (dose: 120.0 mg/kg/injection, schedule: Q01DX005 (ip), vehicle: saline) is reported as 128 % of control and the survivor count (dose: 240.0 mg/kg/injection, schedule: Q01DX005 (ip), vehicle: saline) is reported as 0 of 6 and 3 of 6.

For O=C1C2C3CCC(O3)C2C(=O)N1SC(Cl)(Cl)Cl (configuration not stated), the survivor count [13] was 0 of 6, the survivor count [14] was 0 of 6 and the survivor count [4] was 0 of 6.

With O=C1/C(=C/c2cccc([N+](=O)[O-])c2)SC(=S)N1C1CC1 the survivor count [3] was 5 of 5.

With O=[N+]([O-])c1ccc(Oc2ccccc2[N+](=O)[O-])nc1 the survivor count [15] was 6 of 6, the survivor count [11] was 6 of 6 and the survivor count [12] was 6 of 6.

In the case of COC(=O)CC(N)C(=O)O (configuration not stated), the survivor count (dose: 400.0 mg/kg/injection, schedule: Q01DX005 (ip), vehicle: saline) is reported as 3 of 5.

Cc1cc(N2CCCCC2)cc(=O)o1 was tested, and the survivor count [12] was 0 of 6.

With CC(=O)O.Cl.NC1C([O-])OC(CO)C(O)C1O.O=C1OC(C(O)CO)C([O-])=C1[OH2+].[Cu+2] (configuration not stated) the survivor count (dose: 30.0 mg/kg/injection, schedule: Q01DX005 (ip), vehicle: saline with Tween-80) was 0 of 6, the survivor count (dose: 60.0 mg/kg/injection, schedule: Q01DX005 (ip), vehicle: saline with Tween-80) was 0 of 6 and the survivor count (dose: 120.0 mg/kg/injection, schedule: Q01DX005 (ip), vehicle: saline with Tween-80) was 0 of 6. For the same compound, the survivor count [8] was 0 of 6.

For Fc1ccc(Nc2c3ccccc3nc3ccccc23)cc1, the T/C (dose: 50.0 mg/kg/injection, schedule: Q01DX009 (ip), vehicle: saline with Tween-80) was 125 % of control.

In the case of CC(C)(C)c1cc(C[N+](C)(C)C)c(O)c(C(C)(C)C)c1, the survivor count (dose: 100.0 mg/kg/injection, schedule: Q01DX005 (ip), vehicle: distilled water + alcohol) is reported as 0 of 5 and the survivor count (dose: 200.0 mg/kg/injection, schedule: Q01DX005 (ip), vehicle: distilled water + alcohol) is reported as 0 of 5.

In the case of OC(CNC1CCCCC1)c1ccccc1 (configuration not stated), the survivor count [15] is reported as 0 of 6, the survivor count [11] is reported as 0 of 6 and the survivor count [12] is reported as 0 of 6. For the same compound, the survivor count (dose: 400.0 mg/kg/injection, schedule: Q01DX009 (ip), vehicle: Klucel (hydroxypropylcellulose) (HPC)) was 0 of 6.

CC(C)C1C(=O)N(c2ccccc2)N(C)C1C (configuration not stated) was tested, and the survivor count (dose: 400.0 mg/kg/injection, schedule: Q04DX003 (ip), vehicle: Klucel (hydroxypropylcellulose) (HPC)) was 3 of 6.

With S=P1(c2ccccc2)C=C(N2CCCC2)CC1 (configuration not stated) the survivor count [13] was 6 of 6.

In the case of CC(C)CC(NC(c1ccccc1)(c1ccccc1)c1ccccc1)C(=O)O (configuration not stated), the survivor count [1] is reported as 2 of 6.

For Cc1cccc(O)c1O, the survivor count [14] was 3 of 6, the survivor count [5] was 0 of 6 and the survivor count [7] was 0 of 6.

In the case of CNC(=O)OCc1cocc1COC(=O)NC, the survivor count (dose: 200.0 mg/kg/injection, schedule: Q01DX009 (ip), vehicle: distilled water + Tween-80) is reported as 0 of 6.

In the case of O=c1c([N+](=O)[O-])c[nH]c2ccccc12, the survivor count (dose: 400.0 mg/kg/injection, schedule: Q01DX009 (ip), vehicle: distilled water + Tween-80) is reported as 3 of 6.
